Experimental data: PMC7723048
Results are given in words; binding and its absence hold for the method and conditions named. Binding seen in cells or lysates may run through a third protein. Some results given as binding are weak or reduced against the parent protein; the word gives no strength. For some assays here: Where a sequence is shown, tags or fusion partners need not be part of it.

Protein sequences, listed by entry. Tags and fused reporters are not part of them.
UniProt O60934: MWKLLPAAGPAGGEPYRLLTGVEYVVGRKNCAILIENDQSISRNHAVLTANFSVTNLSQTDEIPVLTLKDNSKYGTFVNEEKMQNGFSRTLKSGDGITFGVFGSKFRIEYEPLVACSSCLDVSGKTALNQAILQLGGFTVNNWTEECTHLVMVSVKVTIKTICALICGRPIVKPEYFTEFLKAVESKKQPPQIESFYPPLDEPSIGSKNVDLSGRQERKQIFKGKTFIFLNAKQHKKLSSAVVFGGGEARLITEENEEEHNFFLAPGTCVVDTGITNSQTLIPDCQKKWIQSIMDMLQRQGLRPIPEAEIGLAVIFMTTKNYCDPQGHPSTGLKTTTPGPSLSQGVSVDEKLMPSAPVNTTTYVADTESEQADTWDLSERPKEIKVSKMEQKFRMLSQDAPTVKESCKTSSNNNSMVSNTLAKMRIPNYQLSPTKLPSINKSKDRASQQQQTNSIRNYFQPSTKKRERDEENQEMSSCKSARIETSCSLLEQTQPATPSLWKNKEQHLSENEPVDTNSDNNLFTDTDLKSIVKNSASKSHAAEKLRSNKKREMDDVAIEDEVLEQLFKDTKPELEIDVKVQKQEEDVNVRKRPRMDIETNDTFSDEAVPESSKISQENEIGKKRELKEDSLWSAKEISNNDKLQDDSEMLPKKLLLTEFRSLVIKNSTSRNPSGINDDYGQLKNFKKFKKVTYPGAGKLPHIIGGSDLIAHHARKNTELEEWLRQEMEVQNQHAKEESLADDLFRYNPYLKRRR
UniProt P09874: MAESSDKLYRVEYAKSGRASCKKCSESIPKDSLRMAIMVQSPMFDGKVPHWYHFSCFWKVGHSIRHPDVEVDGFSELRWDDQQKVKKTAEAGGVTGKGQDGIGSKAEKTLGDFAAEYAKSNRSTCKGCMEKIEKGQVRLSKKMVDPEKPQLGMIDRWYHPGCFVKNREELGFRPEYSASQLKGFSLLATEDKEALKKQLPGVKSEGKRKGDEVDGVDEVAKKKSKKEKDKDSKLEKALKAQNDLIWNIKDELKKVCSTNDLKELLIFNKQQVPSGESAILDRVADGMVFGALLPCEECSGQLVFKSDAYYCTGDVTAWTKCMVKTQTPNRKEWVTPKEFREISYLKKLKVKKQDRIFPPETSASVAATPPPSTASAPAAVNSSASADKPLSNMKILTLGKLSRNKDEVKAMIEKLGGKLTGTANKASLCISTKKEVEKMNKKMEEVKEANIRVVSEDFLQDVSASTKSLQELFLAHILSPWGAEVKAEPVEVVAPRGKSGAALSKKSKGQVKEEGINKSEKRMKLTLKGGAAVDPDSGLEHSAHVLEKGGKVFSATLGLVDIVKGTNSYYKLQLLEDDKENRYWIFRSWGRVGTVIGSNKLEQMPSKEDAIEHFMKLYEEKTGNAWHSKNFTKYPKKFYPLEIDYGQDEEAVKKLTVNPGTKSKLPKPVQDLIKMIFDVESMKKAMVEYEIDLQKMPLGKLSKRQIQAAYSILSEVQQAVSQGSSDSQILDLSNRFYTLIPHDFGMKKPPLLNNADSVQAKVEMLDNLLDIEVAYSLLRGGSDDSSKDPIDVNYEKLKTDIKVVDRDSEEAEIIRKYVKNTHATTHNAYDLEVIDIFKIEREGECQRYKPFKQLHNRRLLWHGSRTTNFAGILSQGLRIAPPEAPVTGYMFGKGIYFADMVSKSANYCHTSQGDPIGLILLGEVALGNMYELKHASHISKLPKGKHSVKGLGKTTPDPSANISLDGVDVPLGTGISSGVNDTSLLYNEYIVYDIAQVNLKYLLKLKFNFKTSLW

How the values were obtained:
[1] = biological target: T1, His-tagged BCAS2 bacterial fusion protein (UniProt O75934); assay: pull-down; in vitro pull-down of bacteria-produced fusion proteins; complexes pulled down by Ni-NTA agarose beads (His-BCAS2), GST-NBS1 detected by anti-GST immunoblot
T1 sequence: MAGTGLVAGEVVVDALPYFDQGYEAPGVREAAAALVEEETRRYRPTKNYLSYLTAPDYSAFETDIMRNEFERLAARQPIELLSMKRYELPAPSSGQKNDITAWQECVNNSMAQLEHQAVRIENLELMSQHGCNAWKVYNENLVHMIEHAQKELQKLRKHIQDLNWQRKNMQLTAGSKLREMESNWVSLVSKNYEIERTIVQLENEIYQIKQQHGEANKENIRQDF

FLAG-tagged BCAS2 = biological target: T2, FLAG-tagged BCAS2 (UniProt O75934); assay: co-IP; HEK 293T cells co-transfected with V5-NBS1 and FLAG-BCAS2; cell extracts precipitated with anti-FLAG antibody, immunoblot
T2 sequence: T1 sequence

GST-BCAS2 full-length = biological target: T3, GST-BCAS2 full-length (UniProt O75934); assay: pull-down; glutathione resin-bound GST-BCAS2 (full-length or deletion proteins, from bacteria) incubated with lysates of HEK 293T cells transfected with V5-NBS1 (full-length or deletion clones); anti-V5 western blot; only the target purified
T3 sequence: T1 sequence

[2] = biological target: T4, endogenous BCAS2 (HEK 293T) (human (endogenous in HEK 293T)) (UniProt O75934); assay: co-IP; endogenous proteins in HEK 293T cells; precipitated with an anti-BCAS2 antibody
T4 sequence: T1 sequence

[3] = biological target: T5, BCAS2 precipitated by an anti-BCAS2 antibody (cells not stated) (UniProt O75934); assay: co-IP; proteins co-immunoprecipitated by an anti-BCAS2 antibody; data not shown, cells not given
T5 sequence: T1 sequence

GST-NBS1 bacterial fusion protein (from UniProt O60934 1-754)
binding [1]: binds

V5-tagged NBS1 (full-length) (from UniProt O60934 1-754)
binding (FLAG-tagged BCAS2): binds | binding (GST-BCAS2 full-length): binds

endogenous NBS1 (HEK 293T) (from UniProt O60934 1-754)
binding [2]: binds

poly ADP-ribose polymerase-1 (from UniProt P09874 1-1014)
binding [3]: binds
